Laboratory results reported in PubChem BioAssay AID256 (DTP/NCI, 2004).
The list shows only some results of the screen, not a fair sample: it is rich in T/C values a quarter to a half above the control, in often repeated tests (any T/C) and in doses without a T/C. Other doses and runs of a compound stand elsewhere. T/C gives the treated animals as a percentage of the vehicle group. Some doses have a count of surviving animals in place of a T/C: the source holds a T/C of zero for them, seemingly a mark for toxic or unscored doses. Some doses without a T/C left all or most animals alive at the check, yet need not have been tolerated: the source hardly ever lists a survival T/C far under the control, and the zero likely stands for such cases as well. Counts of survivors are from the toxicity check (mostly the fifth day) where no day follows; animals may have died later. Schedule codes are those of the source, taken here to give the interval after Q, in days (D) or hours (H), and the number of doses after X. Some entries hold several experiments; the values are given in rising order. For survival time, this PubChem deposit counts one and a half times the control or more as active, and values a quarter to a half above the control carry no call in these data; other NCI protocols may use other cut-offs. Some T/C values are followed by the survivors on the day toxicity was checked, most often the fifth; where none is given, no animal had died by that day. Additions like (4×) count equal records among those shown.

System: CD2F1 mice, L1210 leukemia ip, survival T/C
Assay: NCI In Vivo Anticancer Drug Screen. Data for tumor model L1210 Leukemia (intraperitoneal) in CD2F1 (CDF1) mice
Settings: higher T/C = longer survival
In short: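 Each value reflects a quotient of treated over vehicle control outcomes in mice with a transplanted tumor.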

[1] = T/C endpoint: mean survival time, dose: 100.0 mg/kg/injection, schedule: Q04DX003 (ip), vehicle: saline with Tween-80
[2] = T/C endpoint: mean survival time, dose: 200.0 mg/kg/injection, schedule: Q04DX003 (ip), vehicle: saline with Tween-80
[3] = T/C endpoint: mean survival time, dose: 400.0 mg/kg/injection, schedule: Q04DX003 (ip), vehicle: saline with Tween-80
[4] = T/C endpoint: mean survival time, dose: 300.0 mg/kg/injection, schedule: Q01DX001 (ip), vehicle: saline
[5] = T/C endpoint: mean survival time, dose: 16.0 mg/kg/injection, schedule: Q04DX003 (ip), vehicle: saline
[6] = T/C endpoint: mean survival time, dose: 200.0 mg/kg/injection, schedule: Q01DX009 (ip), vehicle: saline with Tween-80

`Cc1ccc(S(=O)(=O)NC(=O)C2C(=O)CC3(CCCCC3)CC2=O)cc1` was tested, and the survivor count (T/C endpoint: median survival time, dose: 200.0 mg/kg/injection, schedule: Q01DX009 (ip), vehicle: Klucel (hydroxypropylcellulose) (HPC)) was 1 of 6 and the survivor count (T/C endpoint: median survival time, dose: 400.0 mg/kg/injection, schedule: Q01DX009 (ip), vehicle: Klucel (hydroxypropylcellulose) (HPC)) was 0 of 6.
With `CCOC(=O)C(C)(C)CN1COCC1(C)C` the survivor count (T/C endpoint: mean survival time, dose: 400.0 mg/kg/injection, schedule: Q01DX001 (ip), vehicle: saline with Tween-80) was 3 of 6.
`COc1ccc(/C=C/c2cc[n+](C)cc2)cc1` was tested, and the survivor count (T/C endpoint: mean survival time, dose: 50.0 mg/kg/injection, schedule: Q01DX009 (ip), vehicle: saline) was 2 of 6, the survivor count [1] was 5 of 6 and the survivor count [2] was 0 of 6. The survivor count [3] was 0 of 6.
In the case of `Cc1[se]c2ccccc2[n+]1C`, the survivor count [4] is reported as 2 of 6.
With `N#Cc1[nH]nc2ncnc(NC(=O)C(F)(F)F)c12` the survivor count (T/C endpoint: mean survival time, dose: 100.0 mg/kg/injection, schedule: Q01DX005 (ip), vehicle: water) was 1 of 3.
For `CCCCCCCCCCCCCCCCCCSC1=CC(=O)C(OC)=C(OC)C1=O`, the survivor count (T/C endpoint: mean survival time, dose: 12.5 mg/kg/injection, schedule: Q01DX009 (ip), vehicle: Klucel (hydroxypropylcellulose) (HPC)) was 6 of 6 and the survivor count (T/C endpoint: mean survival time, dose: 25.0 mg/kg/injection, schedule: Q01DX009 (ip), vehicle: Klucel (hydroxypropylcellulose) (HPC)) was 6 of 6.
With `Oc1ccc(Cl)cc1Sc1cc(Cl)ccc1O` the survivor count (T/C endpoint: mean survival time, dose: 200.0 mg/kg/injection, schedule: Q04DX003 (ip), vehicle: other) was 3 of 6 and the survivor count (T/C endpoint: mean survival time, dose: 400.0 mg/kg/injection, schedule: Q04DX003 (ip), vehicle: other) was 4 of 6.
For `Nc1ccc(NC(=O)Nc2ccc(N)cc2)cc1`, the survivor count (T/C endpoint: mean survival time, dose: 25.0 mg/kg/injection, schedule: Q04DX003 (ip), vehicle: saline with Tween-80) was 2 of 6, the survivor count (T/C endpoint: mean survival time, dose: 50.0 mg/kg/injection, schedule: Q04DX003 (ip), vehicle: saline with Tween-80) was 2 of 6 and the survivor count [1] was 2 of 6. The survivor count [2] was 2 of 6 and the survivor count [3] was 1 of 6.
`C#CC12CCCCN1CCC2` (configuration not stated) was tested, and the survivor count (T/C endpoint: mean survival time, dose: 400.0 mg/kg/injection, schedule: Q01DX001 (ip), vehicle: saline) was 1 of 6.
For `N#CCC(C#N)C1C=CCC1` (configuration not stated), the survivor count (T/C endpoint: mean survival time, dose: 12.5 mg/kg/injection, schedule: Q04DX003 (ip), vehicle: saline) was 2 of 6, the survivor count (T/C endpoint: mean survival time, dose: 75.0 mg/kg/injection, schedule: Q01DX001 (ip), vehicle: saline) was 0 of 6 and the survivor count [1] was 0 of 6. The survivor count (T/C endpoint: mean survival time, dose: 150.0 mg/kg/injection, schedule: Q01DX001 (ip), vehicle: saline) was 0 of 6, the survivor count [2] was 0 of 6 and the survivor count [4] was 0 of 6. For the same molecule, the survivor count [3] was 0 of 6.
For `Nc1nc(N)c2nc(COc3ccc(C(=O)NC(CCC(=O)O)C(=O)O)cc3)cnc2n1` (configuration not stated), the T/C (T/C endpoint: mean survival time, dose: 0.38 mg/kg/injection, schedule: Q01DX009 (ip), vehicle: sodium bicarbonate) was 125 % of control, the T/C (T/C endpoint: mean survival time, dose: 0.75 mg/kg/injection, schedule: Q01DX009 (ip), vehicle: sodium bicarbonate) was 143 % of control and the T/C (T/C endpoint: mean survival time, dose: 1.5 mg/kg/injection, schedule: Q01DX009 (ip), vehicle: saline with Tween-80) was 126 % of control. The survivor count (T/C endpoint: mean survival time, dose: 6.0 mg/kg/injection, schedule: Q01DX009 (ip), vehicle: saline with Tween-80) was 6 of 6.
With `N#Cc1c(F)c(F)c(Oc2c(F)c(F)c(F)c(F)c2F)c(F)c1F` the survivor count [3] was 4 of 6.
In the case of `C[C@]1(O)CC[C@H]2[C@@H]3CCC4=CC(=O)CC[C@]4(C)[C@@]3(Cl)[C@@H](O)C[C@@]21C`, the T/C (T/C endpoint: mean survival time, dose: 400.0 mg/kg/injection, schedule: Q04DX003 (ip), vehicle: saline sonified) is reported as 129 % of control.
`OC(C1CO1)C(O)C1CO1` (configuration not stated) was tested, and the T/C (T/C endpoint: mean survival time, dose: 0.5 mg/kg/injection, schedule: Q03HX024 (ip), vehicle: saline) was 133 % of control [9 of 10 alive], the T/C (T/C endpoint: mean survival time, dose: 1.0 mg/kg/injection, schedule: Q01DX009 (ip), vehicle: saline, evaluated on day 30) was 130 and 145 % of control and the T/C (T/C endpoint: mean survival time, dose: 1.0 mg/kg/injection, schedule: Q01DX009 (ip), vehicle: saline, evaluated on day 60) was 110 and 131 % of control. The T/C (T/C endpoint: mean survival time, dose: 1.0 mg/kg/injection, schedule: Q03HX008 (ip), vehicle: saline) was 132 % of control [8 of 10 alive], the T/C (T/C endpoint: mean survival time, dose: 1.0 mg/kg/injection, schedule: Q03HX016 (ip), vehicle: saline) was 134 % of control and the T/C (T/C endpoint: mean survival time, dose: 1.4 mg/kg/injection, schedule: Q01DX009 (ip), vehicle: saline) was 127 % of control. For the same molecule, the T/C (T/C endpoint: mean survival time, dose: 2.0 mg/kg/injection, schedule: Q01DX009 (ip), vehicle: saline, evaluated on day 30) was 178 and 182 % of control, the T/C (T/C endpoint: mean survival time, dose: 2.0 mg/kg/injection, schedule: Q01DX009 (ip), vehicle: saline, evaluated on day 60) was 140 and 160 % of control and the T/C (T/C endpoint: mean survival time, dose: 2.0 mg/kg/injection, schedule: Q01DX009 (sc), vehicle: saline) was 127 % of control. The T/C (T/C endpoint: mean survival time, dose: 4.0 mg/kg/injection, schedule: Q01DX001 (ip), vehicle: saline) was 127 % of control, the T/C (T/C endpoint: mean survival time, dose: 4.0 mg/kg/injection, schedule: Q01DX009 (ip), vehicle: saline) was 146 % of control and the T/C (T/C endpoint: mean survival time, dose: 4.0 mg/kg/injection, schedule: Q04DX003 (ip), vehicle: saline, evaluated on day 30) was 143 % of control. For the same molecule, the T/C (T/C endpoint: mean survival time, dose: 4.0 mg/kg/injection, schedule: Q04DX003 (ip), vehicle: saline, evaluated on day 60) was 147 % of control, the T/C (T/C endpoint: mean survival time, dose: 4.0 mg/kg/injection, schedule: Q08DX002 (ip), vehicle: saline) was 142 % of control and the T/C (T/C endpoint: mean survival time, dose: 5.0 mg/kg/injection, schedule: Q01DX001 (ip), vehicle: saline) was 134 % of control. For the same molecule, the T/C (T/C endpoint: mean survival time, dose: 8.0 mg/kg/injection, schedule: Q01DX001 (ip), vehicle: saline) was 136 % of control, the T/C (T/C endpoint: mean survival time, dose: 8.0 mg/kg/injection, schedule: Q01DX001 (sc), vehicle: saline) was 125 % of control and the survivor count (T/C endpoint: mean survival time, dose: 8.0 mg/kg/injection, schedule: Q01DX009 (ip), vehicle: saline) was 6 of 6. The T/C (T/C endpoint: mean survival time, dose: 10.0 mg/kg/injection, schedule: Q01DX001 (ip), vehicle: saline, evaluated on day 30) was 176 and 191 % of control, the T/C (T/C endpoint: mean survival time, dose: 10.0 mg/kg/injection, schedule: Q01DX001 (ip), vehicle: saline, evaluated on day 60) was 166, 176 (2×), 179 % of control and the T/C (T/C endpoint: mean survival time, dose: 12.5 mg/kg/injection, schedule: Q01DX001 (ip), vehicle: saline) was 186, 187, 252, 418 % of control. For the same molecule, the T/C (T/C endpoint: mean survival time, dose: 15.0 mg/kg/injection, schedule: Q01DX001 (ip), vehicle: saline, evaluated on day 30) was 217 % of control, the T/C (T/C endpoint: mean survival time, dose: 15.0 mg/kg/injection, schedule: Q01DX001 (ip), vehicle: saline, evaluated on day 60) was 102 [7 of 10 alive], 286, 425, 428 % of control and the T/C (T/C endpoint: mean survival time, dose: 16.0 mg/kg/injection, schedule: Q01DX001 (ip), vehicle: saline) was 127 % of control. For the same molecule, the survivor count (T/C endpoint: mean survival time, dose: 16.0 mg/kg/injection, schedule: Q01DX009 (ip), vehicle: saline) was 9 of 10 and 6 of 6, the T/C [5] was 132 % of control and the survivor count [5] was 10 of 10. For the same molecule, the survivor count (T/C endpoint: mean survival time, dose: 40.0 mg/kg/injection, schedule: Q01DX001 (ip), vehicle: saline) was 5 of 6, the survivor count (T/C endpoint: mean survival time, dose: 80.0 mg/kg/injection, schedule: Q01DX001 (ip), vehicle: saline) was 6 of 6 and the T/C (T/C endpoint: median survival time, dose: 8.0 mg/kg/injection, schedule: Q01DX001 (ip), vehicle: saline) was 134 and 148 % of control. For the same molecule, the T/C (T/C endpoint: median survival time, dose: 12.0 mg/kg/injection, schedule: Q03DX003 (ip), vehicle: saline) was 139 % of control.
For `CCCCCCC#CC(O)CC` (configuration not stated), the survivor count [6] was 1 of 3.
`CCOC(=O)c1cnc2c(cnn2CC)c1N1CCCCC1` was tested, and the survivor count (T/C endpoint: mean survival time, dose: 400.0 mg/kg/injection, schedule: Q04DX003 (ip), vehicle: Klucel (hydroxypropylcellulose) (HPC)) was 0 of 3.
In the case of `CCCCNCC(=O)O[C@]1(CC)C(=O)OCc2c1cc1n(c2=O)Cc2cc3ccccc3nc2-1`, the T/C (T/C endpoint: median survival time, dose: 30.0 mg/kg/injection, schedule: Q04DX002 (ip), vehicle: saline) is reported as 130 % of control, the survivor count (T/C endpoint: median survival time, dose: 60.0 mg/kg/injection, schedule: Q04HX004 (iv), vehicle: dextrose) is reported as 0 of 6 and the survivor count (T/C endpoint: median survival time, dose: 120.0 mg/kg/injection, schedule: Q04DX002 (ip), vehicle: saline) is reported as 6 of 6.
In the case of `c1ccc([P+](Cc2ccc3ccccc3n2)(c2ccccc2)c2ccccc2)cc1`, the survivor count (T/C endpoint: mean survival time, dose: 25.0 mg/kg/injection, schedule: Q01DX009 (ip), vehicle: saline) is reported as 1 of 3.
In the case of `c1ccc(Cn2cc(CCc3ccncc3)c3ccccc32)cc1`, the survivor count [6] is reported as 2 of 6 and the survivor count [3] is reported as 0 of 6.
With `CCOC(=O)c1c(NC(C)=O)sc2c1CCCC2` the survivor count [3] was 6 of 6.
